The record followed here is paper PMC4876461.

These are yes or no findings as the source states them, for the method shown. Binding seen in cells or lysates may run through a third protein. These calls come from enrichment with a bait or labelling near it, and not all partners need be listed. Tags and fused reporters may be left off the sequences shown.

For the experiment, the target named is T1, Flag-SUMO5 (human) (UniProt G2XKQ0).
T1 sequence: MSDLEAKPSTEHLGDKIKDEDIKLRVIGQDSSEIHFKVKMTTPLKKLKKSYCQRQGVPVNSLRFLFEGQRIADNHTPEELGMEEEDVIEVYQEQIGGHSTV
Description: affinity purification with mass spectrometry; lysate of 293 cells expressing Flag-SUMO5 (PBS, 0.1% NP-40) on an anti-Flag M2-agarose column, eluted with Flag peptide; bands specific to the SUMO5 complex identified by mass spectrometry.

B1: SAE2 (enzyme, UniProt Q9UBT2 1-640)
chain: MALSRGLPRELAEAVAGGRVLVVGAGGIGCELLKNLVLTGFSHIDLIDLDTIDVSNLNRQFLFQKKHVGRSKAQVAKESVLQFYPKANIVAYHDSIMNPDYNVEFFRQFILVMNALDNRAARNHVNRMCLAADVPLIESGTAGYLGQVTTIKKGVTECYECHPKPTQRTFPGCTIRNTPSEPIHCIVWAKYLFNQLFGEEDADQEVSPDRADPEAAWEPTEAEARARASNEDGDIKRISTKEWAKSTGYDPVKLFTKLFKDDIRYLLTMDKLWRKRKPPVPLDWAEVQSQGEETNASDQQNEPQLGLKDQQVLDVKSYARLFSKSIETLRVHLAEKGDGAELIWDKDDPSAMDFVTSAANLRMHIFSMNMKSRFDIKSMAGNIIPAIATTNAVIAGLIVLEGLKILSGKIDQCRTIFLNKQPNPRKKLLVPCALDPPNPNCYVCASKPEVTVRLNVHKVTVLTLQDKIVKEKFAMVAPDVQIEDGKGTILISSEEGETEANNHKKLSEFGIRNGSRLQADDFLQDYTLLINILHSEDLGKDVEFEVVGDAPEKVGPKQAEDAAKSITNGSDDGAQPSTSTAQEQDDVLIVDSDEEDSSNNADVSEEERSRKRKLDEKENLSAKRSRIEQKEELDDVIALD
On to B1, for which the binding entry is “binds”.
